Measurements: PubChem BioAssay AID2718 (Broad Institute, 2010)
Out of some 320,000 compounds screened, about 480 (0.15%) were called active. The inconclusive results got no clear call from the source; some entries with a clear call stand among them for comparison. Cut-off read from the data, not from the text of the source: active = inhibition above about 26% (passing the limit was not always enough); inconclusive = no clear call, values can overlap the other calls.

Sequences of proteins named here, by UniProt entry; tags and fusion partners are left off.
UniProt O15379, whole entry, looked up: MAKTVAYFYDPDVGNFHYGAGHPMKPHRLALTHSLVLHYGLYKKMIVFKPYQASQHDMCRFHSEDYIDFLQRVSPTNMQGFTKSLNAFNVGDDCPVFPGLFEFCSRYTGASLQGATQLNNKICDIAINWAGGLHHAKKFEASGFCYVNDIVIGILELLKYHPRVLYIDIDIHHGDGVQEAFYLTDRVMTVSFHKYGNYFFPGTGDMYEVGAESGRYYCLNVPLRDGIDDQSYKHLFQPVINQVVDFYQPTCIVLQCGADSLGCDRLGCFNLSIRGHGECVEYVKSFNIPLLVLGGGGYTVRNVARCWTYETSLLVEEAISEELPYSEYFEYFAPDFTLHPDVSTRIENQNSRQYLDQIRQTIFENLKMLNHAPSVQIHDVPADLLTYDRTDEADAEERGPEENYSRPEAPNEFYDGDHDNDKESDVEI

Each compound was assayed against Histone deacetylase 3 (Homo sapiens) (UniProt O15379) (assay: HDAC3 deacetylase inhibitors, primary screen, biochemical, fluorescence, cell-free homogeneous (AID 2718)). Details: recombinant HDAC3, fluorogenic peptide/trypsin coupled, at 8.3 µM, hits give high values.
With O=C(NCc1ccccc1)c1ccc(CS(=O)(=O)Cc2ccc(F)cc2)o1 the inhibition was inconclusive: 19.4%.
For N#C/C(=C/c1cc(Cl)c(O)c(Cl)c1)C(=O)N1CCCCC1, the inhibition was inconclusive: 15.1%.
With CCCCCCCCCCOC(=O)Cn1c(COc2cccc(C)c2)[n+](C)c2ccccc21 the inhibition was inconclusive: 24.1%.
With CCc1cc2c(=O)oc(-c3ccccc3F)nc2s1 the inhibition was active: 69%.
In the case of COc1ccc(NC(=O)C(c2ccc(OC)cc2)N(C)C(=O)c2cnccn2)cc1 (stereo unspecified), the inhibition is reported as inconclusive: 27.2%.
Cc1cc(Cl)cc(C)c1OCC(=O)NC1CCCCCC1 was tested, and the inhibition was inconclusive: 24.4%.
For Cc1cc2occ(CC(=O)O)c2cc1C, the inhibition was inactive: -2.56%.
With COc1ccc([N+](=O)[O-])cc1N(CC(O)CN(CC(C)C)CC(C)C)S(=O)(=O)c1ccc(C)cc1 (stereo unspecified) the inhibition was inconclusive: 22.9%.
In the case of N#CCCN(Cc1ccccc1)C(=O)c1nccnc1C(=O)O, the inhibition is reported as inactive: -3.14%.
With O=C(Oc1ccc(N(Cc2cccs2)C2=NS(=O)(=O)c3ccccc32)cc1)c1ccccc1 the inhibition was active: 68.6%.
NC(=O)N1CCc2ccccc21 was tested, and the inhibition was inconclusive: 27.8%.
With CCOC(=O)C1C(=O)C=C(c2cccs2)CC1c1ccccc1 (stereo unspecified) the inhibition was inactive: 4.97%.
With Cc1ccc(NC(=O)c2ccccc2NS(=O)(=O)c2ccc(F)cc2)cc1S(=O)(=O)N1CCCCC1 the inhibition was inconclusive: 21.8%.
In the case of CCOc1c(OC(C)=O)ccc(/C=C2\N=C(SCC)SC2=O)c1[N+](=O)[O-], the inhibition is reported as inactive: 12.6%.
For N#CC1=C(N)OC2=C(C(=O)CCC2)C1c1cc2c(cc1Br)OCO2 (stereo unspecified), the inhibition was inactive: -2.87%.
In the case of COc1cccc(-c2cccc(NC(=O)C3CCN(Cc4ccon4)CC3)c2)c1, the inhibition is reported as inconclusive: 10.5%.
With N#CCCN1CCN(S(=O)(=O)c2ccc(C3CCCCC3)cc2)CC1 the inhibition was inconclusive: 37.1%.
CN(C(=O)c1ccc(NC(=O)C2CCCN(C(=O)OC(C)(C)C)C2)cc1)C1CC1 (stereo unspecified) was tested, and the inhibition was inconclusive: 16.3%.
For CC(C)Cn1c2ccccc2c2cc(C(=O)O)ccc21, the inhibition was inactive: -5.81%.
COc1cc(C(=O)O/N=C2/C=C(C)C(=O)C=C2C)cc(OC)c1OC was tested, and the inhibition was active: 35%.
For CN(Cc1ccccc1)S(=O)(=O)c1cccs1, the inhibition was inconclusive: 13.4%.
With O=C(O)C1=C(OCc2ccccc2)C(=O)NCC1 the inhibition was inconclusive: 25.6%.
For Cc1oc(-c2ccc(Cl)cc2)nc1CS(=O)CC(=O)NCc1ccccc1 (stereo unspecified), the inhibition was inactive: -4.7%.
CCC1CCCN1Cn1cnc2c([nH]c3ccc(C)cc32)c1=O (stereo unspecified) was tested, and the inhibition was inactive: -32%.
With O=C1C2C3CCCC3=C3CCCC3C2C(=O)N1c1cccc(Cl)c1 (stereo unspecified) the inhibition was inactive: 0.257%.
For Cc1cc(=O)oc2cc(OCC(=O)N3CCOCC3)c(Cl)cc12, the inhibition was inactive: -34.6%.
With COc1cccc(NC(=O)CN(C)C(=O)Cc2ccc3c(c2)CCC3)c1 the inhibition was inconclusive: 14.4%.
CCc1c(C)sc(NC(=O)c2cc(-c3ccc(OC)c(OC)c3)on2)c1C#N was tested, and the inhibition was inactive: -4.78%.
With C=CCC[C@@H](Cc1ccc(F)cc1)C(=O)OC[C@@H](NC(=O)[C@@H](CC=C)CC(=O)N(CCO)Cc1ccccc1)c1ccccc1 the inhibition was active: 38%.
c1ccc2nc(SCc3cn4ccccc4n3)cnc2c1 was tested, and the inhibition was inactive: 6.09%.
In the case of CN1C(=S)SC(/[N+]([O-])=C\c2cccs2)C1(C)C (stereo unspecified), the inhibition is reported as inconclusive: 13.6%.
In the case of Cc1cc(Cl)c(S(=O)(=O)N2CCN(c3cccc(C)c3C)CC2)cc1OCC(N)=O, the inhibition is reported as inconclusive: 21.4%.
With CCn1cc(/C=C/C(=O)NCc2c(C)nn(C)c2C)cn1 the inhibition was inconclusive: 27.6%.
COc1ccc2[nH]c3c(=S)nc[nH]c3c2c1 was tested, and the inhibition was inconclusive: 16.8%.
In the case of CCC(C)NC(=S)N1CCN(C)CC1 (stereo unspecified), the inhibition is reported as inconclusive: 15%.
COc1ccc(OC)c(C2C(C(N)=O)=C(C)Nc3nc(-c4cccc(Cl)c4)nn32)c1 (stereo unspecified) was tested, and the inhibition was inconclusive: 16.7%.
For COc1cc2c(C(=O)N3CCCc4ccccc43)cn(C)c(=O)c2cc1OC, the inhibition was inconclusive: 17.9%.
For COc1ccc(OC)c(Nc2nnc(C)c(=O)[nH]2)c1, the inhibition was inconclusive: 14.9%.
For Cc1c(C)c(C)c(S(=O)(=O)n2[nH]c(=O)c(CCO)c2C)c(C)c1C, the inhibition was inconclusive: 22.5%.
With CCc1[nH]nc2c1C1(CCN(C(=O)c3ccccc3)CC1)C(C#N)=C(N)O2 the inhibition was inconclusive: 15.6%.
With COc1ccc(N(C(=O)CNC(=O)c2ccco2)C(C(=O)NC2CCCCC2)c2ccco2)cc1 (stereo unspecified) the inhibition was inconclusive: 11%.
For CCN(CC)C(=O)COc1ccc2oc(C)c(C(=O)OC)c2c1, the inhibition was inconclusive: 17.7%.
With CC1CCN(C(=O)CSc2nncn2C)CC1 the inhibition was inactive: 3.87%.
Cc1ccc2nc(NCCCO)nc(-c3ccccc3)c2c1 was tested, and the inhibition was inconclusive: 29.6%.
With CC[n+]1c(/C=C(\C)Nc2ccccc2)sc2ccccc21 the inhibition was inconclusive: 19.9%.
For CC(C)(C)OC(=O)N[C@@H](Cc1ccccc1)C(=O)NCC1CCC(C(=O)N[C@@H](CC(=O)O)C(=O)O)CC1 (stereo partly specified), the inhibition was inactive: -8.07%.
With CCN(CC)c1ccc(NC(=O)c2ccc3c(c2)c(C)c(C)n3C)cc1 the inhibition was inactive: 18.3%.
With N=C1/C(=C/c2ccc(OC(=O)c3ccco3)cc2)C(=O)N=C2SC=CN12 the inhibition was inconclusive: 9.3%.
Cc1nn(CCc2n[nH]c(=S)n2-c2ccc(F)c(Cl)c2)c(C)c1[N+](=O)[O-] was tested, and the inhibition was inactive: -1.72%.
CC(=O)N(C1=C(Cl)C(=O)c2ccccc2C1=O)C1CCCCC1 was tested, and the inhibition was inconclusive: 32.8%.
In the case of Cc1nn(-c2ccccc2)c(C)c1C(=O)OCC(=O)NCc1ccco1, the inhibition is reported as inconclusive: 17.9%.
For COc1cc(NC(=O)COc2ccc(Cl)cc2)ccc1NC(=O)C(C)C, the inhibition was inconclusive: 15.8%.
In the case of CCOc1ccc(Br)cc1CNCCN1CCOCC1, the inhibition is reported as inactive: 1.42%.
For C/C(=N/NS(=O)(=O)c1ccccc1)c1c[nH]c2ccccc12, the inhibition was inconclusive: 17.8%.
CCN1C(=O)[C@H]2[C@@H](c3ccc(SC4CCCCC4)c(OC)c3)N[C@@](Cc3ccccc3)(C(=O)OC)[C@H]2C1=O was tested, and the inhibition was inconclusive: 19.8%.
For COC(=O)c1cc(C(=O)NCCCN2CCOCC2)cc([N+](=O)[O-])c1, the inhibition was inconclusive: 6.15%.
